PubChem BioAssay AID602196, INSERM | 2012
Assay: 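Knock-downs that protect lung cancer cells from cisplatin or sensitise them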. System: human A549 lung cancer cells. Reagents: siRNA pair against human genes. Duration: 48 h transfection before cisplatin; time from cisplatin to read-out not stated. Treatment: cisplatin at a dose killing half of control-siRNA cells; exact dose and duration not given. Read-out: 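Cisplatin cell death as a shift from the 50% death seen with control siRNA; siRNAs toxic or growth-blocking alone scored 0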. Scale: two-siRNA summed score (-2 to +2): higher = both siRNAs protect from cisplatin killing; -2 means both sensitise. Rule for the call: 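siRNAs harmful alone (LDH or WST-1) get 0; others get +1 for less and -1 for more cisplatin killing; genes are active when the two siRNAs give the same sign, summing to ±2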. Meaning of the calls: active = both siRNAs shift cisplatin killing the same way; inactive = no consistent shift, or siRNA harmful alone.
Shown is an unselected part of about 23,000 reagents tested. In the full data, 455 (2%) were called active. 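Active includes both protection and sensitisation; some change values fall well beyond the stated -50 to +50 range.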 Not all columns of the deposit are shown. Not stated in the record: the amount of reagent.

target | two-siRNA summed score (-2 to +2) | outcome
CAPN2 (calpain 2) | 0 | inactive
RAB30 (RAB30, member RAS oncogene family) | -1 | inactive
INAVA (innate immunity activator) | 0 | inactive
NDFIP1 (Nedd4 family interacting protein 1) | 0 | inactive
AFG3L2 (AFG3 like matrix AAA peptidase subunit 2) | -1 | inactive
KITLG (KIT ligand) | -1 | inactive
B3GNT9 | 0 | inactive
IL19 (interleukin 19) | 0 | inactive
PANX3 (pannexin 3) | 0 | inactive
JMJD7-PLA2G4B (JMJD7-PLA2G4B readthrough) | 0 | inactive
RCVRN (recoverin) | -1 | inactive
FAM218A (family with sequence similarity 218 member A) | 0 | inactive
WNT3 (Wnt family member 3) | 1 | inactive
LOC440406 | 0 | inactive
NPFFR2 (neuropeptide FF receptor 2) | 0 | inactive
LOC402251 | 0 | inactive
TAF7L (TATA-box binding protein associated factor 7 like) | 0 | inactive
SHB (SH2 domain containing adaptor protein B) | 1 | inactive
ANKRD13A (ankyrin repeat domain 13A) | 0 | inactive
LOC400943 (retired record) | 0 | inactive
SACK1C (scaffolding CK1 anchoring protein C) | 0 | inactive
NBPF11 (NBPF member 11) | 0 | inactive
RECQL (RecQ like helicase) | -1 | inactive

Laid out differently: results already given
SACK1C (scaffolding CK1 anchoring protein C)
- two-siRNA summed score (-2 to +2): 0
- outcome: inactive

NBPF11 (NBPF member 11)
- two-siRNA summed score (-2 to +2): 0
- outcome: inactive
